Assay: general procedure: solution-phase peptide synthesis; DCC/1-hydroxybenzotriazole; active esters (OTcp, OObt); azide fragment coupling
Settings: late stage modification step, acetate

For H-D-Gln(Bzl)-Leu-Arg-Pro-NH-C2H5, the difficulty met was “The very impure material is purified by partition chromatography”.
